Results deposited as PubChem BioAssay AID1259254 (NCATS, 2017)
This is a random part of about 59,000 reagents tested. About 1,550 of all reagents (2.6%) count as active. 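G2 share is only a proxy for re-replication; each gene was hit by three separate siRNAs, and active genes were retested.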 Raw values vary from plate to plate and are shown uncorrected. Unmarked entries are inactive. The numbers tell different reagents against one gene apart. Not given: the amount of reagent.

Aim: 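Gene knock-downs that lead to re-replication, shown by excess G2 DNA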 (primary screen)
System: human HCT116 colorectal cancer cells
Reagent: single siRNA against human genes
Timing: 3 days
Detection: 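Imaged Hoechst DNA stain sorts each cell into a cycle phase by DNA amount; per plate, G2 fraction set to 0% for non-targeting and 100% for GMNN siRNA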
Scale: G2 robust z-score and G2 cells, % of GMNN control: higher = more G2 cells, more excess DNA replication; raw share of cells in G2: higher = larger share of cells with G2 DNA content
Call rule: 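An siRNA counts as active if its G2 robust z-score lies at least 5 MADs above the screen median; here such calls match roughly 38% of GMNN control or more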

gene | siRNA no. | G2 robust z-score | G2 cells, % of GMNN control | raw share of cells in G2 (%)
IFITM5 (interferon induced transmembrane protein 5) | 1 | -0.357 | 0.459 | 3.6
IFITM5 (interferon induced transmembrane protein 5) | 2 | 2.08 | 17.6 | 12.2
IFITM5 (interferon induced transmembrane protein 5) | 3 | -0.891 | -3.3 | 2.64
RPS14P3 (ribosomal protein S14 pseudogene 3) | 1 | 4.58 | 35.2 | 17
RPS14P3 (ribosomal protein S14 pseudogene 3) | 2 | 5.08 (active) | 38.7 | 17.2
RPS14P3 (ribosomal protein S14 pseudogene 3) | 3 | 1.33 | 12.3 | 6.74
KCTD18 (potassium channel tetramerization domain containing 18) | 1 | 0.588 | 7.1 | 5.54
KCTD18 (potassium channel tetramerization domain containing 18) | 2 | 1.4 | 12.8 | 7.61
KCTD18 (potassium channel tetramerization domain containing 18) | 3 | 2.42 | 20 | 10.5
INKA1 (inka box actin regulator 1) | 1 | 0.289 | 5 | 5.49
INKA1 (inka box actin regulator 1) | 2 | -0.992 | -4.01 | 1.66
INKA1 (inka box actin regulator 1) | 3 | 0.473 | 6.3 | 7.33
CLTRN (collectrin, amino acid transport regulator) | 1 | -0.477 | -0.392 | 4.19
CLTRN (collectrin, amino acid transport regulator) | 2 | -0.444 | -0.156 | 4.38
CLTRN (collectrin, amino acid transport regulator) | 3 | -0.592 | -1.2 | 2.65
ADAM21 (ADAM metallopeptidase domain 21) | 1 | -0.808 | -2.72 | 4.61
ADAM21 (ADAM metallopeptidase domain 21) | 2 | -0.246 | 1.24 | 5.35
ADAM21 (ADAM metallopeptidase domain 21) | 3 | -0.315 | 0.749 | 4.19
MALSU1 (mitochondrial assembly of ribosomal large subunit 1) | 1 | -0.918 | -3.49 | 2.69
MALSU1 (mitochondrial assembly of ribosomal large subunit 1) | 2 | -1.05 | -4.41 | 2.01
MALSU1 (mitochondrial assembly of ribosomal large subunit 1) | 3 | -0.901 | -3.37 | 0.833
TNFRSF13C (TNF receptor superfamily member 13C) | 1 | 0.055 | 3.35 | 2.8
TNFRSF13C (TNF receptor superfamily member 13C) | 2 | 1.48 | 13.4 | 9.45
TNFRSF13C (TNF receptor superfamily member 13C) | 3 | 1.38 | 12.7 | 7.11
MFAP5 (microfibril associated protein 5) | 1 | 0.678 | 7.74 | 8.56
MFAP5 (microfibril associated protein 5) | 2 | 0.0687 | 3.45 | 5.26
MFAP5 (microfibril associated protein 5) | 3 | -0.332 | 0.629 | 3.57
MSANTD4 (Myb/SANT DNA binding domain containing 4 with coiled-coils) | 1 | 3.76 | 29.4 | 13.9
MSANTD4 (Myb/SANT DNA binding domain containing 4 with coiled-coils) | 2 | 0.00988 | 3.04 | 4.36
MSANTD4 (Myb/SANT DNA binding domain containing 4 with coiled-coils) | 3 | -0.435 | -0.0932 | 2.38
OCA2 (OCA2 melanosomal transmembrane protein) | 1 | 0.168 | 4.15 | 6.77
OCA2 (OCA2 melanosomal transmembrane protein) | 2 | -0.294 | 0.9 | 5.12
OCA2 (OCA2 melanosomal transmembrane protein) | 3 | -0.319 | 0.725 | 3.45
NFIL3 (nuclear factor, interleukin 3 regulated) | 1 | -0.0508 | 2.61 | 4.5
NFIL3 (nuclear factor, interleukin 3 regulated) | 2 | 1.85 | 16 | 12.3
NFIL3 (nuclear factor, interleukin 3 regulated) | 3 | 0.136 | 3.93 | 4.53
ARPIN (actin related protein 2/3 complex inhibitor) | 1 | 0.941 | 9.59 | 7.28
ARPIN (actin related protein 2/3 complex inhibitor) | 2 | -0.701 | -1.97 | 2.4
ARPIN (actin related protein 2/3 complex inhibitor) | 3 | 0.384 | 5.67 | 6.47
EDF1 (endothelial differentiation related factor 1) | 1 | 0.546 | 6.81 | 7.63
EDF1 (endothelial differentiation related factor 1) | 2 | 4.48 | 34.5 | 17.4
EDF1 (endothelial differentiation related factor 1) | 3 | -0.672 | -1.76 | 4.08
OLFML1 (olfactomedin like 1) | 1 | -0.317 | 0.737 | 3.49
OLFML1 (olfactomedin like 1) | 2 | -1.28 | -6.07 | 1.43
OLFML1 (olfactomedin like 1) | 3 | 3.35 | 26.5 | 13.3

Active calls, of those listed so far:
gene | siRNA no. | G2 robust z-score | G2 cells, % of GMNN control | raw share of cells in G2 (%)
RPS14P3 (ribosomal protein S14 pseudogene 3) | 2 | 5.08 (active) | 38.7 | 17.2

Next reagents:
gene | siRNA no. | G2 robust z-score | G2 cells, % of GMNN control | raw share of cells in G2 (%)
TRPC1 | 1 | 3.03 | 24.3 | 14.1
TRPC1 | 2 | -0.152 | 1.9 | 5.42
TRPC1 | 3 | 0.403 | 5.81 | 6.64
TSEN34 (tRNA splicing endonuclease subunit 34) | 1 | -0.0676 | 2.49 | 6.68
TSEN34 (tRNA splicing endonuclease subunit 34) | 2 | -0.606 | -1.29 | 3.89
TSEN34 (tRNA splicing endonuclease subunit 34) | 3 | 2.17 | 18.2 | 10.8
EDA (ectodysplasin A) | 1 | -0.148 | 1.93 | 4.34
EDA (ectodysplasin A) | 2 | 5.65 (active) | 42.7 | 21.5
EDA (ectodysplasin A) | 3 | -0.303 | 0.837 | 5.54
CSE1L (chromosome segregation 1 like) | 1 | 3.32 | 26.3 | 14.3
CSE1L (chromosome segregation 1 like) | 2 | 4.11 | 31.9 | 16.6
CSE1L (chromosome segregation 1 like) | 3 | 8.01 (active) | 59.4 | 24.5
DCLK1 (doublecortin like kinase 1) | 1 | -1.13 | -4.95 | 4.05
DCLK1 (doublecortin like kinase 1) | 2 | -0.659 | -1.67 | 4.58
DCLK1 (doublecortin like kinase 1) | 3 | -0.278 | 1.01 | 4.01
TGM3 (transglutaminase 3) | 1 | -0.886 | -3.27 | 3.43
TGM3 (transglutaminase 3) | 2 | -0.679 | -1.81 | 3.36
TGM3 (transglutaminase 3) | 3 | 0.69 | 7.82 | 8.31
DOCK7 (dedicator of cytokinesis 7) | 1 | 1.73 | 15.2 | 10.2
DOCK7 (dedicator of cytokinesis 7) | 2 | -0.451 | -0.204 | 5.58
DOCK7 (dedicator of cytokinesis 7) | 3 | -0.375 | 0.329 | 5.11
ATF7IP2 (activating transcription factor 7 interacting protein 2) | 1 | -0.547 | -0.88 | 4.08
ATF7IP2 (activating transcription factor 7 interacting protein 2) | 2 | 2.16 | 18.2 | 12.3
ATF7IP2 (activating transcription factor 7 interacting protein 2) | 3 | -0.0955 | 2.3 | 3
MSLN (mesothelin) | 1 | -1.08 | -4.67 | 1.98
MSLN (mesothelin) | 2 | 4.83 | 37 | 22.4
MSLN (mesothelin) | 3 | -0.0951 | 2.3 | 4.3
CD69 (CD69 molecule) | 1 | -0.215 | 1.45 | 5.98
CD69 (CD69 molecule) | 2 | 0.517 | 6.61 | 6.51
CD69 (CD69 molecule) | 3 | -0.729 | -2.16 | 2.68
LRFN3 | 1 | 1.42 | 12.9 | 8.93
LRFN3 | 2 | 1.42 | 12.9 | 11
LRFN3 | 3 | -1.38 | -6.72 | 1.97
DUSP28 (dual specificity phosphatase 28) | 1 | 0.647 | 7.52 | 5.76
DUSP28 (dual specificity phosphatase 28) | 2 | 1.39 | 12.8 | 8.94
DUSP28 (dual specificity phosphatase 28) | 3 | -0.369 | 0.374 | 4.42
DPY19L2 (dpy-19 like 2) | 1 | 0.325 | 5.25 | 5.56
DPY19L2 (dpy-19 like 2) | 2 | -0.156 | 1.87 | 3.77
DPY19L2 (dpy-19 like 2) | 3 | -0.7 | -1.96 | 2.67
TRAPPC3 (trafficking protein particle complex subunit 3) | 1 | -0.939 | -3.64 | 2.46
TRAPPC3 (trafficking protein particle complex subunit 3) | 2 | 1 | 10 | 8.33
TRAPPC3 (trafficking protein particle complex subunit 3) | 3 | 1.99 | 17 | 8.61
